Laboratory results reported in paper PMC10338684.
Results are given in words; binding and its absence hold for the method and conditions named. A result given as binding can be weak or reduced; the word gives no strength. Sequences can lack the tags named with a protein.

Molecular target: MOM2, yeast two-hybrid fusion (Arabidopsis thaliana)
Assay: two-hybrid; Gal4-BD (pGBKT7-GW) and Gal4-AD (pGADT7-GW) fusions co-transformed into yeast AH109; growth on SD-TLH with 5 mM 3AT after 2-3 days

binding: binds
B1: PIAL2, yeast two-hybrid fusion (protein, UniProt F4JYG0 1-760)
chain: MSTAAAARPVAGTGLREKTAASLVNSFRLASVTQRLRYHIQDGAKVDPKEFQICCISFAKGIDFAIANNDIPKKVEEFPWLLKQLCRHGTDVYTKTALMVLMISVKHACHLGWFSDSESQELIALADEIRTCFGSSGSTSPGIKSPGSTFSQIMERFYPFVKLGHVLVSFEVKAGYTMLAHDFYISKNMPHSLQEKIRLFVAQTDNIDTSACISNPPEVSFLLNGKGVEKRVNIAMDTGPQLPTNVTAQLKYGTNLLQVMGNFKGNYIIIIAFTGLVVPPEKPVLKDYLQSGVIEASPDSDIIEGPSRVSLSCPISRKRIKLPVKGQLCKHLQCFDFSNYVHINMRNPTWRCPHCNQPVCYPDIRLDQNMAKILKDVEHNAADVIIDAGGTWKVTKNTGETPEPVREIIHDLEDPMSLLNSGPVVFDLTGDDDAELEVFGDNKVEDRKPCMSDAQGQSNNNNTNKHPSNDDYSSIFDISDVIALDPEILSALGNTAPQPHQASNTGTGQQYSNLSQIPMSIDPMPVPVPFSQTPSPRDRPATTSTVFTIPNPSPQYSQVHASPVTPTGTYLGRTTSPRWNQTYQSQAPPMTTPYTSRKVSVPVTSQSPANVSSFVQSQHVPRVLSQPNNYGVRGLTSSHASTSRQHPSGPTVQSVSRLSDLVDVDLTVPDTSNWRPRMRGSLVPGSHSTALDHMIIRPSQQSQTSTRLNSSQPVQTPSVQTSQAQSPFTTAAYRTETVLGNRNHPVPAPPGIVRPTGPTS
